Results are given in words; binding and its absence hold for the method and conditions named. Some results given as binding are weak or reduced against the parent protein; the word gives no strength.
Biological target: T1, hKLB
T1 sequence: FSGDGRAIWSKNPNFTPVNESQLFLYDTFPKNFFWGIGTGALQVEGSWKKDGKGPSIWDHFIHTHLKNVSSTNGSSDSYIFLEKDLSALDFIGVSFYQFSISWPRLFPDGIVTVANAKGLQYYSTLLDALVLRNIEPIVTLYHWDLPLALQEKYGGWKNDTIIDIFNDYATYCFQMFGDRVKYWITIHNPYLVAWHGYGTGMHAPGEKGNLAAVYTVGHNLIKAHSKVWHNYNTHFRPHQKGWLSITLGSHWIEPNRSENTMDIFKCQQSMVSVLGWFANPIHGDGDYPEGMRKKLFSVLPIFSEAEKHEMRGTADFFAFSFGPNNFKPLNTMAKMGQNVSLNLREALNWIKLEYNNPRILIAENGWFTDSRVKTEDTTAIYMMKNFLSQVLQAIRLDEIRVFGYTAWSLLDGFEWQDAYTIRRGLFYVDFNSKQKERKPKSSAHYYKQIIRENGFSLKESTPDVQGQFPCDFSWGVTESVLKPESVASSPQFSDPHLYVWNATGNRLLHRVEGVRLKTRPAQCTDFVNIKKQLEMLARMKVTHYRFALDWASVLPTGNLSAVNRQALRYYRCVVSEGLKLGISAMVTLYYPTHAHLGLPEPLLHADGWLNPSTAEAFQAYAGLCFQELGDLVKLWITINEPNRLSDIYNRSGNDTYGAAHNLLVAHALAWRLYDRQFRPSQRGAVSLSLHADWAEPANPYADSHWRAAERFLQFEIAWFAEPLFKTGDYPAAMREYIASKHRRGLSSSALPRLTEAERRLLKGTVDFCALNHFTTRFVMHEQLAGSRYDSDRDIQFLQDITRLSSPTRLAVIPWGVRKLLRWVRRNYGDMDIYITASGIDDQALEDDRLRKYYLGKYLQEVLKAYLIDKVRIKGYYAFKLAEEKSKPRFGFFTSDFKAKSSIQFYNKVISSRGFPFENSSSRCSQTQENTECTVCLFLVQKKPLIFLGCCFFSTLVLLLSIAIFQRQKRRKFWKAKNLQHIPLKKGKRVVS
Test: FACS on 293 cells expressing hKLB, antibody at 0.8 ug/ml

binding: binds
B1: 8E1 (antibody, V domains shown)
VH: EVQLQQSGAELVKPGASVKLSCTAADFNIKDTYMHWVKQRPEQGLEWIGRIDPSNGNAKYDPKFQGKASITADSSSNTAYLHLSSLTSEDTAVYYCASRALGNGYALGYWGQGTSVTVSS
VL: DIQMTQSSSYLSVSLGGSVTITCKASDHINNWLAWYQQKPGNAPRLLIYGTTNLETGVPSRFSGSGSGRDYILSITSLQSEDVASYYCQQYWNTPFTFGSGTKLEIK

Reference: patent US20160244525A1
